Among the data in patent US20230272011A1 are binding values, retold here.

By UniProt entry, the sequences of proteins in these tests, tags left out. Where a name states a change or a piece, a line headed by the entry shows the natural chain unless it says otherwise. Residues count along the entry.
UniProt P02768, residues 25-609: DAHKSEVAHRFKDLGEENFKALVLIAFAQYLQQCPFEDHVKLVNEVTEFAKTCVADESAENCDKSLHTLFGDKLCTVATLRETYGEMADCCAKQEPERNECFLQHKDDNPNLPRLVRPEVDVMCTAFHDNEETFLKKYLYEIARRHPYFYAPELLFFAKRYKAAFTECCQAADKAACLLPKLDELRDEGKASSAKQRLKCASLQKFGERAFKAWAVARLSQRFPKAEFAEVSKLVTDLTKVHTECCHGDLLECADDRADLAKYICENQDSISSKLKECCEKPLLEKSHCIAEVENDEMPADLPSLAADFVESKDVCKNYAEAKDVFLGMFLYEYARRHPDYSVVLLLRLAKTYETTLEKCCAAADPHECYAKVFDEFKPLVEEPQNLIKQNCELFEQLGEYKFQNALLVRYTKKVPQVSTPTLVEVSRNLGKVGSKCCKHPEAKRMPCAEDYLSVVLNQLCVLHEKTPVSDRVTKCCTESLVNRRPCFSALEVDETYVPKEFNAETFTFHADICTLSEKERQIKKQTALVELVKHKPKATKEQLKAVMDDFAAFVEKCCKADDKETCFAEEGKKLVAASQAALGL
UniProt P07724, residues 25-608: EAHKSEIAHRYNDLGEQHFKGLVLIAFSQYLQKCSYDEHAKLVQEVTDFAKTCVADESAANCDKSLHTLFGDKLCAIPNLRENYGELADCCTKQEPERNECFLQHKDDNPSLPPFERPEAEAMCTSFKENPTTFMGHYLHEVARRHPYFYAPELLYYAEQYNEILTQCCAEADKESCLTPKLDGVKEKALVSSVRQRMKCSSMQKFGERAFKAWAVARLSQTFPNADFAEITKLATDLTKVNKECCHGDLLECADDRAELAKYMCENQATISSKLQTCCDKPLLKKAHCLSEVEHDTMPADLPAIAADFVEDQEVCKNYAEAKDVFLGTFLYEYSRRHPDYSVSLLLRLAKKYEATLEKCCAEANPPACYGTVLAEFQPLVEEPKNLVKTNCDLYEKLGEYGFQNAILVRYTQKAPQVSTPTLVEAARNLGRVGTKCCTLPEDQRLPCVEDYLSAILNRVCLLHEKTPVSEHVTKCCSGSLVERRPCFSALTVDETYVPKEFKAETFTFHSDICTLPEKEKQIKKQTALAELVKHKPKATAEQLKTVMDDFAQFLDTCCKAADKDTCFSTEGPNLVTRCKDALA
UniProt Q9EP73: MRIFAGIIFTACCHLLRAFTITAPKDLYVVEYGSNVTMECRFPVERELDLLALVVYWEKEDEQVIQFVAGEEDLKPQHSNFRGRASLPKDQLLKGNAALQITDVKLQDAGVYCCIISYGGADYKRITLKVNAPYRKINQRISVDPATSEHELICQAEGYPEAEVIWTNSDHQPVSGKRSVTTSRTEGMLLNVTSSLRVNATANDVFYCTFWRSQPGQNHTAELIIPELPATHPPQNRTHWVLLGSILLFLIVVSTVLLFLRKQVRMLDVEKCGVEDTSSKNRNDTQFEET
UniProt Q9NZQ7, residues 19-239: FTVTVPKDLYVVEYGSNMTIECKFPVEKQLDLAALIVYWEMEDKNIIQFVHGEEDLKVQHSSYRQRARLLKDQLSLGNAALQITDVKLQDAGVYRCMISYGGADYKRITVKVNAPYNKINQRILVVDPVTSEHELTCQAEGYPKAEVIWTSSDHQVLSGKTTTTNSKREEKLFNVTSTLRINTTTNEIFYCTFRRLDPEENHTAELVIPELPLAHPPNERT

Assay [1] deals with human serum albumin (human) (UniProt P02768). Kind of assay: BLI (Octet), pH 7.4. A general note: BLI is a label-free optical method that tracks binding on a fibre tip over time.
Assay [2] addresses mouse serum albumin (mouse) (UniProt P07724). Kind of assay: BLI (Octet), pH 7.4.
The target in a further assay is mPD-L1 (mouse) (UniProt Q9EP73). Kind of assay: competitive ELISA (mPD-1/mPD-L1), Affimer pre-incubated with mPD-L1. On the technique in general: ELISA stands for enzyme-linked immunosorbent assay.
Assay [3] has as its target human PD-L1-Fc (R&D Systems) chimeric protein (human) (UniProt Q9NZQ7). Kind of assay: binding ELISA, coated human PD-L1-Fc.

Results are given in words; binding and its absence hold for the method and conditions named. Some results given as binding are weak or reduced against the parent protein; the word gives no strength. For some of these results: Where a sequence is shown, tags or fusion partners need not be part of it.

B1: HSA-41, C-terminal 6x His tag cleaved (designed binder)
chain: MIPRGLSEAKPATPEIQEIVDKVKPQLEEKTNETYGKLEAVQYKTQVLANFFQRRWPGSTNYYIKVRAGDNKYMHLKVFNGPWKFRNTDRGADRVLTGYQVDKNKDDELTGFEQKLISEEDL
With B1, the binding result in assay [1] and in assay [2] was “binds” throughout.

B2: AVA04-182 XT20 (designed binder)
chain: MIPRGLSEAKPATPEIQEIVDKVKPQLEEKTNETYGKLEAVQYKTQVLAFALPEFEYMSTNYYIKVRAGDNKYMHLKVFNGPPMIRRKNEVADRVLTGYQVDKNKDDELTGFAEAAAKEAAAKEAAAKEAAAKEAAAKEAAAKMIPRGLSEAKPATPEIQEIVDKVKPQLEEKTNETYGKLEAVQYKTQVLAFALPEFEYMSTNYYIKVRAGDNKYMHLKVFNGPPMIRRKNEVADRVLTGYQVDKNKDDELTGFAEAAAKEAAAKEAAAKEAAAKEAAAKEAAAKMIPRGLSEAKPATPEIQEIVDKVKPQLEEKTNETYGKLEAVQYKTQVLANFFQRRWPGSTNYYIKVRAGDNKYMHLKVFNGPWKFRNTDRGADRVLTGYQVDKNKDDELTGFHHHHHH
Turning to B2, the binding entry in the assay with mPD-L1 (mouse) is “binds”.

B3: AVA04-251 BH (designed binder)
chain: MIPRGLSEAKPATPEIQEIVDKVKPQLEEKTNETYGKLEAVQYKTQVLAREGRQDWVLSTNYYIKVRAGDNKYMHLKVFNGPWVPFPHQQLADRVLTGYQVDKNKDDELTGFAEAAAKEAAAKEAAAKEAAAKEAAAKEAAAKMIPRGLSEAKPATPEIQEIVDKVKPQLEEKTNETYGKLEAVQYKTQVLAREGRQDWVLSTNYYIKVRAGDNKYMHLKVFNGPWVPFPHQQLADRVLTGYQVDKNKDDELTGFHHHHHH
As for B3, the binding result in assay [3] is “binds”.
